The list shows a part of the results. The data scatter; read single values as rough.
Experiments:
[1] = compound: ClCC(=O)N[C@@H]1CCCc2ccccc12; experiment: log2 mean competition ratio of IA-DTB cysteine labelling (DMSO/compound) (log2 ratio); higher = stronger cysteine engagement by compound; conditions: treatment time: 4 h, cell line lysate: HEK293T
Description: (§1)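 IA-DTB competitive cysteine chemoproteomics in HEK293T RIPA lysate. Lysates were treated with compound 29 or 30 at 50 or 200 µM for 4 h, then IA-DTB (500 µM, 1 h), trypsin-digested, NeutrAvidin-enriched and analysed by diaPASEF. Competition ratio = intensity DMSO / intensity compound (n=4 treated, n=64 DMSO); binding: mean log2 CR ≥ 1 and p ≤ 0.05 plus QC filters. Target is the cysteine site.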

The chains behind the UniProt entries cited, without tags or fusion partners. Where a name states a change or a piece, a line headed by the entry shows the natural chain unless it says otherwise. Residues count along the entry.
UniProt O15304: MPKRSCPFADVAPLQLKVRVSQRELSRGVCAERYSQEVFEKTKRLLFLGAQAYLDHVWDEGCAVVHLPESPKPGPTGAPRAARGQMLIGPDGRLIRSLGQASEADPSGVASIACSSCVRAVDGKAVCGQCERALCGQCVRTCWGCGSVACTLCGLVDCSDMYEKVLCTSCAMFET
UniProt Q99590, 560-583: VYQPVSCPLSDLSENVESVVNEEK
UniProt Q562F6: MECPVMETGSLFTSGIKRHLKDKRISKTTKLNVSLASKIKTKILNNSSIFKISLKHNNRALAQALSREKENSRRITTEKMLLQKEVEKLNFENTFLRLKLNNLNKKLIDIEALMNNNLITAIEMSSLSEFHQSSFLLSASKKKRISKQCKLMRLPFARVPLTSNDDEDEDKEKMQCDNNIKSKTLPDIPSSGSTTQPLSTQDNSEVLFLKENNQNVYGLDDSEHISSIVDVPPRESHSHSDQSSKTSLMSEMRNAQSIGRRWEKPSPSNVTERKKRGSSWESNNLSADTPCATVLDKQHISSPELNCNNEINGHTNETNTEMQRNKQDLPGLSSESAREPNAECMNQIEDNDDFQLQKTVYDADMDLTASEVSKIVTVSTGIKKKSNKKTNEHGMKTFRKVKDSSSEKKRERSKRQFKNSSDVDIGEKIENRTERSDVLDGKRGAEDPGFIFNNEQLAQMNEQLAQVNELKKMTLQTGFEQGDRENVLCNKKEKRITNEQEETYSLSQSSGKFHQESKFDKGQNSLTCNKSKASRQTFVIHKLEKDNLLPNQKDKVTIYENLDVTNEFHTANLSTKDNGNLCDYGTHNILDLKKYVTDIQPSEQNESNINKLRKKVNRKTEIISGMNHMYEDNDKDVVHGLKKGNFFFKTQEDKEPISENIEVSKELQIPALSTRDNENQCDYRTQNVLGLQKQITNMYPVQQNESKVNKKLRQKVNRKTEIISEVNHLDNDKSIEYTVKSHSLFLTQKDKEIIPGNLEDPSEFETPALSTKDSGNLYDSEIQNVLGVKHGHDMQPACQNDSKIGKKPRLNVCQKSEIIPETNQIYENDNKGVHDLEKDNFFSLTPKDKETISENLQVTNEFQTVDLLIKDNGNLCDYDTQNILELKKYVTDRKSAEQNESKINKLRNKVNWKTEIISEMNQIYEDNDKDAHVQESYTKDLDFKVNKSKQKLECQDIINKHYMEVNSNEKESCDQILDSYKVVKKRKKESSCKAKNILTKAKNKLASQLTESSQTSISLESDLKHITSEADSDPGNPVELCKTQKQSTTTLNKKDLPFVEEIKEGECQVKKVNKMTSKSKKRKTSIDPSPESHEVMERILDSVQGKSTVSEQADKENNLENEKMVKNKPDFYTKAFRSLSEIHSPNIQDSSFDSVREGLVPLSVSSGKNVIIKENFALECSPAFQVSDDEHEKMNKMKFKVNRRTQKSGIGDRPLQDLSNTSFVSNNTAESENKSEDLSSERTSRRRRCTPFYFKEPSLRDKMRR
UniProt Q15464: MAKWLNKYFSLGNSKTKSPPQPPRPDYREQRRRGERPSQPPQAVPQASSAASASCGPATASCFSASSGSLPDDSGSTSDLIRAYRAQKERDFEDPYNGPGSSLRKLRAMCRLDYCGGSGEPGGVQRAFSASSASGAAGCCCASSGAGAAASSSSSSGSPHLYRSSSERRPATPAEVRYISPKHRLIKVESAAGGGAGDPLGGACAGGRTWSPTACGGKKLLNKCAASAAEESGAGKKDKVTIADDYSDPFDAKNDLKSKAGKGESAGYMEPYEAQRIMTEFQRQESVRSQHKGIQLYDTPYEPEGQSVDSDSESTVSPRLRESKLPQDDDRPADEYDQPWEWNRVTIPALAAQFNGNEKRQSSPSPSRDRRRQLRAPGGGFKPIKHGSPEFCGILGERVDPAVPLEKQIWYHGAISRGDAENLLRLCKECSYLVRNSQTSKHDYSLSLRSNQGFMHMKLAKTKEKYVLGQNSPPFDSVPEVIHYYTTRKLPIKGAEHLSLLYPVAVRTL
UniProt Q9H4L4, 232-259: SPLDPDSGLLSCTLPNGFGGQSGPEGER
UniProt Q5TCZ1: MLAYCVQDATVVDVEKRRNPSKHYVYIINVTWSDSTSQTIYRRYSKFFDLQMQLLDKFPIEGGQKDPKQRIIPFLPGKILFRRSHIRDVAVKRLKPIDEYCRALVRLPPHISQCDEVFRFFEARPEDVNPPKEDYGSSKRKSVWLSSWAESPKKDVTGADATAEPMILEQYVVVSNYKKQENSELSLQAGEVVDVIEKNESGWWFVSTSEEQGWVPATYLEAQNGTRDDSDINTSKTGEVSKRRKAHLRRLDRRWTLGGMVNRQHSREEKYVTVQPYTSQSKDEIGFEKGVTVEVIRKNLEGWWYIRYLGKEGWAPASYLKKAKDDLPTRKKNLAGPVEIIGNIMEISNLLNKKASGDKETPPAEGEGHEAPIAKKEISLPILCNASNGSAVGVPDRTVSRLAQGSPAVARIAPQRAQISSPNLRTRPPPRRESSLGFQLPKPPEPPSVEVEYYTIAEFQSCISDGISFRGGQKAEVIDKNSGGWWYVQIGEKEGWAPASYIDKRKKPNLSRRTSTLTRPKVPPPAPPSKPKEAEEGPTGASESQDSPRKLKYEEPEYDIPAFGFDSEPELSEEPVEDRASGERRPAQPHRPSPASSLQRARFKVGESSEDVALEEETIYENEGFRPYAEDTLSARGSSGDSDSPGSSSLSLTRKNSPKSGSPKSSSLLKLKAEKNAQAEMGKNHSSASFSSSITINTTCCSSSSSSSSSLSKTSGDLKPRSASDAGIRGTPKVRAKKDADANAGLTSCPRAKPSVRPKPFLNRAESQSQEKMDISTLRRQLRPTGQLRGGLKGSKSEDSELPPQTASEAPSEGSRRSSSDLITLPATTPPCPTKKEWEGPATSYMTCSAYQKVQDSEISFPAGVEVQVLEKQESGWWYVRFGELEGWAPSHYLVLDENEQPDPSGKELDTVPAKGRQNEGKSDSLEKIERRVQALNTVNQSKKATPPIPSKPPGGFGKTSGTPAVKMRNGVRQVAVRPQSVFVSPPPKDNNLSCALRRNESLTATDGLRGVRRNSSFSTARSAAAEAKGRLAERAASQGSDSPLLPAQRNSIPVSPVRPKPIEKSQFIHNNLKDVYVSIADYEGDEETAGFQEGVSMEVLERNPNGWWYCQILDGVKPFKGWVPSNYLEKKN
UniProt Q6IQ49: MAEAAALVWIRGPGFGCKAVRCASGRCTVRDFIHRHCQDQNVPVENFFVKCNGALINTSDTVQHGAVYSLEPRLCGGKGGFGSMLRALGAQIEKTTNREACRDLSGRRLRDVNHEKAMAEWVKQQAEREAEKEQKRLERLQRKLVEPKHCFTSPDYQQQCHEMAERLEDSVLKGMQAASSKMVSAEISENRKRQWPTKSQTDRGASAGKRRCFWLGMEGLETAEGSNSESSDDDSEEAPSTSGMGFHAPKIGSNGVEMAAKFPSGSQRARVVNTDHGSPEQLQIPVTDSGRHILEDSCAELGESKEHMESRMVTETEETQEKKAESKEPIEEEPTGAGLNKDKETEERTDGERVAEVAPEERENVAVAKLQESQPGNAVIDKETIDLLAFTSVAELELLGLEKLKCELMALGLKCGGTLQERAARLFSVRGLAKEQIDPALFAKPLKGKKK
UniProt Q9Y512: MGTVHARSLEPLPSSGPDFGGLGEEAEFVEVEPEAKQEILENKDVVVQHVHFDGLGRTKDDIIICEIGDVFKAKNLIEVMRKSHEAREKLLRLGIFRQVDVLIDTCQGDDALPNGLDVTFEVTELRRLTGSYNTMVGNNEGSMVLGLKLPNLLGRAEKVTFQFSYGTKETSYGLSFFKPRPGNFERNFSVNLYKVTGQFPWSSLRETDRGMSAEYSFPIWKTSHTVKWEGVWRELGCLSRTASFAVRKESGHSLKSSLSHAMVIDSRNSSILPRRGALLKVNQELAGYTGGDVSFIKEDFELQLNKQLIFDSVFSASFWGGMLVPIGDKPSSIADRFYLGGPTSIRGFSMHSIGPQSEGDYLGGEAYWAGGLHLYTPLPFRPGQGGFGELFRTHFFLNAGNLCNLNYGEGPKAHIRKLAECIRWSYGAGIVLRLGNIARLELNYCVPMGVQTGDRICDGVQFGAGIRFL
UniProt P50453: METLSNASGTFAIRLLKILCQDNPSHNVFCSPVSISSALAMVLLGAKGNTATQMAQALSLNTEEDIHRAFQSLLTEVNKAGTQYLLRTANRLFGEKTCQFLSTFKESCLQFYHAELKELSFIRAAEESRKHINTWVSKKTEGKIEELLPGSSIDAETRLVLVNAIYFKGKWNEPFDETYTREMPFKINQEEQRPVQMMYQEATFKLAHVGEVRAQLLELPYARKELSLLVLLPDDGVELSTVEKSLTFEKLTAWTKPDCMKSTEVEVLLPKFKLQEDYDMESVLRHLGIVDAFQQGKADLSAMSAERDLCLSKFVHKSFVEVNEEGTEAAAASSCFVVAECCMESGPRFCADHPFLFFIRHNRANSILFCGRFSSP
UniProt Q8WTS6, 196-215: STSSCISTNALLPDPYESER
UniProt O75533, whole entry, looked up: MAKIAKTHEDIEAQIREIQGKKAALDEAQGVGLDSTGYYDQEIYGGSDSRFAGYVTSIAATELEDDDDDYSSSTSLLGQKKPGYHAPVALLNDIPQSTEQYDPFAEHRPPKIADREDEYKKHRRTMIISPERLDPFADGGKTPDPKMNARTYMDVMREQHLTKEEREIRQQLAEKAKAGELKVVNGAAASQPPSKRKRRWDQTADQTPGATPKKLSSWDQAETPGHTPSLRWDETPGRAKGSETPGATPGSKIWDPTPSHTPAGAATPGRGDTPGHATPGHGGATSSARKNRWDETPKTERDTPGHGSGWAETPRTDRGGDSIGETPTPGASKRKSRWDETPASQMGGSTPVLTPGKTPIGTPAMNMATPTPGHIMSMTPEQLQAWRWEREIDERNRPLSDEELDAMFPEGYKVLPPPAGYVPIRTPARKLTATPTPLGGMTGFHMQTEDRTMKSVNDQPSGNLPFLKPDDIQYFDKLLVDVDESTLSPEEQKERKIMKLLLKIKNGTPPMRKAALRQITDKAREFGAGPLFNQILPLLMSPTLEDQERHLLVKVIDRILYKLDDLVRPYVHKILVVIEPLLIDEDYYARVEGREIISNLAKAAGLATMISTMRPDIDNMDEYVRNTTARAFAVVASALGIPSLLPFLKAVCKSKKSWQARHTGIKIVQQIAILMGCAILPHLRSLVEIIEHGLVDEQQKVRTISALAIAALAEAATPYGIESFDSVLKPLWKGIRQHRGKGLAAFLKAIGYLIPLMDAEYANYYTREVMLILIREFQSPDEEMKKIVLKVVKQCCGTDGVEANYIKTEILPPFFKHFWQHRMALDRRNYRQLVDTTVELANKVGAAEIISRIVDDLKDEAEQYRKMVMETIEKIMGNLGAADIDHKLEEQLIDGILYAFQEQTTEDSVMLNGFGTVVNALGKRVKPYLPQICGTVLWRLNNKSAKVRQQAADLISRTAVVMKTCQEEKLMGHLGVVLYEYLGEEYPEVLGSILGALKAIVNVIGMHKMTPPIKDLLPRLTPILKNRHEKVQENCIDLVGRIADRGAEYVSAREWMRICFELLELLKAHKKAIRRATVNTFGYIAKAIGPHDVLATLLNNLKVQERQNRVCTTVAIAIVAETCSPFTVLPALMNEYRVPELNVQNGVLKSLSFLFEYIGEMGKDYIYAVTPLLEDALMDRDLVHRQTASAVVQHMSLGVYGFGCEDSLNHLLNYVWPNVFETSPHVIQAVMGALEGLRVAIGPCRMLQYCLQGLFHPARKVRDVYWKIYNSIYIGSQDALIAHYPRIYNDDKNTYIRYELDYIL
UniProt Q8NBJ9: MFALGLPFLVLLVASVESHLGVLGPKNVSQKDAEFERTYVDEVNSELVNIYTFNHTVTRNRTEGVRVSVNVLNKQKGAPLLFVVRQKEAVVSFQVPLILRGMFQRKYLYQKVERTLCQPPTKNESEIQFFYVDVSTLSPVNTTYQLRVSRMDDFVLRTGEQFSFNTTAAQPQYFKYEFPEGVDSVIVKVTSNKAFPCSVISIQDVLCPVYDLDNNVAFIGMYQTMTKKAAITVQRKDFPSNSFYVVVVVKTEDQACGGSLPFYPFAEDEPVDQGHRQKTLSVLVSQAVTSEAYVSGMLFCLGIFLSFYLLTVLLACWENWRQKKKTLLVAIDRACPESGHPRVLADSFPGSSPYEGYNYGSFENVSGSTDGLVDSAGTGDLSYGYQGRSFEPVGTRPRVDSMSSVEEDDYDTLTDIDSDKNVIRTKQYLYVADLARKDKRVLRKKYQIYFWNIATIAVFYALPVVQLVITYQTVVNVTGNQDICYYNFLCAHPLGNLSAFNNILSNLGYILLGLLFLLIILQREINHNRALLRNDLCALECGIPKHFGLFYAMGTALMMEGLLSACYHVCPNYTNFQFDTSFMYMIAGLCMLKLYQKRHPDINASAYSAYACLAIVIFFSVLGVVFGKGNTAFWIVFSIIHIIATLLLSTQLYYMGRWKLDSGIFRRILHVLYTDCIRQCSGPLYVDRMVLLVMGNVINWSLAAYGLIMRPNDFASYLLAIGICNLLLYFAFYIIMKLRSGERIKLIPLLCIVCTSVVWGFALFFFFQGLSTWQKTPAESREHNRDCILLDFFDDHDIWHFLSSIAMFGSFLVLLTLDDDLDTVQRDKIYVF

[2] = compound: ClCC(=O)N[C@H]1CCCc2ccccc12; experiment: as above; conditions: treatment time: 4 h, cell line lysate: HEK293T
Description: as §1

| Target | log2 mean competition ratio ([1]; 50 µM) | log2 mean competition ratio ([1]; 200 µM) | log2 mean competition ratio ([2]; 50 µM) | log2 mean competition ratio ([2]; 200 µM) |
| --- | --- | --- | --- | --- |
| SDCCAG8 C236 | -0.269 | 0.0749 | -0.39 | 0.176 |
| SH3BP5L C348 (UniProt Q7L8J4) | 0.118 | -0.0739 | – | – |
| SIVA1 C6 (UniProt O15304) | 1.06 | 0.891 | – | – |
| SGF29 C74 (UniProt Q96ES7) | -0.265 | 0.613 | 0.0383 | 0.202 |
| SIPA1L3 C620 | -0.152 | 0.108 | -0.383 | – |
| SCAF11 C566 (UniProt Q99590) | 0.114 | 0.0289 | – | – |
| SAFB2 C672 | -0.168 | 0.0756 | – | – |
| SETDB1 C92 (UniProt Q15047) | 0.158 | 0.0114 | – | – |
| SAPCD2 C195 | -0.393 | -0.333 | – | – |
| SETDB1 C53 (UniProt Q15047) | -0.117 | 0.285 | – | – |
| SGO2 C1067 (UniProt Q562F6) | -0.378 | -0.00607 | – | – |
| SIPA1L3 C1775 | 0.218 | 0.31 | – | – |
| SHTN1 C565 (UniProt A0MZ66) | 0.0909 | 0.112 | 0.445 | 0.335 |
| SEC31A C644 | 0.117 | -0.553 | 0.392 | -0.406 |
| SETD1B C1007 (UniProt Q9UPS6) | -0.175 | 0.0238 | 0.0337 | 0.115 |
| SHB C392 (UniProt Q15464) | 0.163 | 0.284 | -0.138 | 0.0255 |
| SENP6 C833 (UniProt Q9GZR1) | 0.0899 | 0.245 | 0.149 | 0.127 |
| SARM1 C117 (UniProt Q6SZW1) | 0.0968 | -0.191 | 0.00325 | -0.177 |
| SGK3 C13 (UniProt Q96BR1) | -0.172 | -0.291 | -0.32 | -0.245 |
| SENP3 C243 (UniProt Q9H4L4) | -0.36 | 0.317 | -0.284 | -0.0234 |

| Target | log2 mean competition ratio ([1]; 50 µM) | log2 mean competition ratio ([1]; 200 µM) | log2 mean competition ratio ([2]; 50 µM) | log2 mean competition ratio ([2]; 200 µM) |
| --- | --- | --- | --- | --- |
| SGPP1 C399 (UniProt Q9BX95) | 0.298 | 0.292 | 0.338 | 0.348 |
| SENP6 C379 (UniProt Q9GZR1) | 0.0889 | 0.185 | -0.0499 | 0.145 |
| SBNO2 C643 (UniProt Q9Y2G9) | 0.122 | -0.145 | 0.453 | 0.21 |
| SCAF1 C950 (UniProt Q9H7N4) | -0.157 | 0.0605 | 0.027 | 0.151 |
| SEC24B C555 (UniProt O95487) | 0.0832 | 0.0416 | -0.0822 | 0.0655 |
| SEC63 C366 (UniProt Q9UGP8) | -0.0526 | 0.015 | -0.331 | 0.0686 |
| SH3PXD2A C749 (UniProt Q5TCZ1) | 0.125 | 0.0185 | 0.448 | 0.131 |
| SEC31A C1130 | -0.162 | -0.13 | -0.35 | -0.191 |
| SDE2 C415 (UniProt Q6IQ49) | 0.166 | 0.0204 | 0.0208 | 0.00201 |
| SHB C224 (UniProt Q15464) | 0.181 | -0.0501 | 0.0966 | -0.0403 |
| SCFD1 C485 (UniProt Q8WVM8) | 0.19 | 0.149 | -0.113 | 0.17 |
| SAMM50 C237 (UniProt Q9Y512) | -0.0685 | -0.112 | 0.249 | -0.226 |
| SH3BP5L C201 (UniProt Q7L8J4) | 0.072 | 0.109 | 0.105 | -0.0202 |
| SESTD1 C482 (UniProt Q86VW0) | -0.258 | -0.0996 | 0.255 | 0.272 |
| SETD5 C821 | 0.138 | -0.154 | -0.102 | -0.237 |
| SEC31A C458 | -0.0554 | -0.205 | 0.136 | 0.0384 |
| SHROOM3 C1467 | -0.599 | 0.537 | -0.21 | 0.245 |
| SENP7 C125 (UniProt Q9BQF6) | -0.12 | 0.0544 | -0.155 | 0.11 |
| SEC13 C187 (UniProt P55735) | -0.0412 | -0.114 | -0.178 | -0.0404 |
| SEPTIN10 C22 (UniProt Q9P0V9) | 0.101 | -0.0556 | -0.182 | -0.239 |

Reformatted with bars between the fields: entries from further up.
Target | log2 mean competition ratio ([1]; 50 µM) | log2 mean competition ratio ([1]; 200 µM) | log2 mean competition ratio ([2]; 50 µM) | log2 mean competition ratio ([2]; 200 µM)
SDE2 C415 (UniProt Q6IQ49) | 0.166 | 0.0204 | 0.0208 | 0.00201
SHB C224 (UniProt Q15464) | 0.181 | -0.0501 | 0.0966 | -0.0403
SCFD1 C485 (UniProt Q8WVM8) | 0.19 | 0.149 | -0.113 | 0.17

The listing continues:

| Target | log2 mean competition ratio ([1]; 50 µM) | log2 mean competition ratio ([1]; 200 µM) | log2 mean competition ratio ([2]; 50 µM) | log2 mean competition ratio ([2]; 200 µM) |
| --- | --- | --- | --- | --- |
| SELENOO C241 (UniProt Q9BVL4) | 0.0708 | -0.437 | -0.285 | -0.604 |
| SHMT2 C343 | -0.216 | -0.0984 | 0.0776 | -0.0273 |
| SART3 C670 | 0.0493 | -0.0159 | -0.0453 | -0.0319 |
| SDHA C238 (UniProt P31040) | -0.264 | 0.185 | -0.305 | -0.178 |
| SCLY C316 (UniProt Q96I15) | -0.04 | 0.00268 | 0.116 | -0.157 |
| SDAD1 C87 (UniProt Q9NVU7) | -0.0562 | 0.0688 | -0.615 | -0.0785 |
| SENP5 C77 (UniProt Q96HI0) | -0.124 | 0.372 | -0.469 | 0.414 |
| SERPINB9 C259 (UniProt P50453) | -0.0617 | 0.096 | -0.331 | -0.0225 |
| SETD7 C200 (UniProt Q8WTS6) | 0.294 | 0.119 | 0.605 | -0.384 |
| SCAI C63 (UniProt Q8N9R8) | 0.314 | -0.0784 | 0.00123 | 0.178 |
| SF3B3 C1156 (UniProt Q15393) | -0.0575 | -0.325 | 0.137 | -0.288 |
| SHMT2 C412 | -0.0321 | 0.0386 | -0.0863 | -0.0862 |
| SESN2 C8 (UniProt P58004) | -0.263 | 0.241 | -0.101 | 0.0699 |
| SETD2 C1086 (UniProt Q9BYW2) | -0.0801 | 0.0036 | 0.204 | -0.0285 |
| SF3B1 C1244 (UniProt O75533) | 0.1 | -0.313 | 0.493 | -0.271 |
| SCARF2 C295 | 0.214 | 0.198 | -0.0493 | 0.415 |
| SEPTIN2 C111 | -0.367 | 0.0298 | -0.0189 | 0.142 |
| SIDT2 C335 (UniProt Q8NBJ9) | 0.333 | -0.221 | -0.152 | -0.117 |
| SH2D5 C397 | -0.183 | 0.909 | -0.151 | 0.14 |
